Results taken from PMC11094040.
No constants are given. Whether binding was seen depends on the method and setting. In cells and extracts the contact can be indirect. A result given as binding can be weak or reduced; the word gives no strength.

What was measured:
[1] = target: FLAG-Spn-E-EQ (E251Q) (silkworm); test: co-IP; tandem IP: first anti-FLAG IP of FLAG-Spn-E-EQ from BmN4 lysate, 3x FLAG peptide eluate diluted with buffer D, second IP with anti-BmAgo3 antibody (or normal rabbit IgG); beads with or without 200 μg/ml RNase A at 30 °C for 15 min; Siwi detected by western blot
[2] = target: FLAG-Spn-E (wild type) (silkworm); test: co-IP; anti-FLAG (M2) on Dynabeads Protein G, lysate of BmN4 cells expressing FLAG-Spn-E (wild type or EQ) and treated with dsRNA targeting the Spn-E 3' UTR; buffer B (25 mM Tris-HCl pH 7.6, 150 mM NaCl, 1.5 mM MgCl2, 0.25% Triton X-100), 4 °C; eluted with 3x FLAG peptide; western blot for Siwi and BmAgo3
[3] = target: FLAG-Spn-E-EQ (E251Q) (silkworm); test: as above

| binding [1] | binding [2] | binding [3] | Binder |
| --- | --- | --- | --- |
| binds | binds | binds | BmAgo3 (protein, UniProt A9ZSZ2 1-926) MADPGKGRGRSLALLQALKKSQMMDSPSQSESQSPESTPEQSTAPSTIASATPSTSGVSIGGRGRAAALMLAKMQQKPGSTTPAIFVPPSSTSAPTAGTGRGFKLLQNLQASQKASSQIASSQVTSSAQSDIKDLTEKMSETSVSAQASSVAKNKYFREVKDTPPVVKKGETGVPIEVTCNYIYLNFKENIVFEYEVKFEPDQDYKHLRFKLLNEHIEHFKEKTFDGTTLYVPHELPDAVRNLVSTNPYDQSKVNVSIIFRRTRRLSEMIHIYNVMFKCIMKDLKLIRFGRQHYNEHAAIQIPQHKLEVWPGYVTAVDEYEGGLMLTLDSTHRVLRTQTVLSLIKEVVQTEGANWKRKMTDILIGASVMTTYNKKLFRVDTIDDKMSPRSTFEKTEKGETVQISFIDYYKKNYGIEIMDWDQPLLISRDTKRMPGSDTPTDFMICLIPELCQLTGLTDDQRSNFRLMKDVATYTRITPNQRHAAFKKYIESVMKNETAKSRLAGWGLSIAPETVNLTARTLPPETLYFGDNVRVPGKPNAEWNSEVTKHSVMQAVDIMRWVLLFTQRDKQVAMDFLSTLKRNCRPMGIMVSDAELVPLANDRTDTYVLALKKCITSSVQLVVAICSTKRDDRYAAIKKVCCADNPVPSQVINARTLMNTNKIRSITQKILLQLNCKLGGTLWSISIPFKSAMIVGIDSYHDPSRRNRSVCSFVASYNQSMTLWYSKVIFQEKGQEIVDGLKCCLVDALTHYLRSNGQLPDRIIIYRDGVGDGQLKLLQQYEIPQMKICFTILGSNYQPTLTYVVVQKRINTRIFLKSRDGYDNPNPGTVVDHCITRRDWYDFLIVSQKVTQGTVTPTHYVVVYDDSGITPDQCQRLTYKMCHLYYNWPGTVRVPAPCQYAHKLSYLVGQCVHAQPSDVLVDKLFFL |
| binds | binds | binds | Siwi (protein, UniProt A8D8P8 1-899) MSEPRGRGRARGRAGRGGDGGGPAPRRPGEQAGPSQQSMPPGPRPQPPSGWGPQSSVPPVRAGVPTPTAQAGRASHRVTPTTHEHPGDIDVQQRMQKLELGPHSSGGGDASSVVGRGSRRGGGRVLPETISILRTRPEAVTSKKGTSGTPLDLLANYFTVETTPKWGLYQYHVDISPEEDSTGVRKALMRVHSKTLGGYLFDGTVLYTVNRLHPDPMELYSDRKTDNERMRILIKLTCEVSPGDYHYIQIFNIIIRKCFNLLKLQLMGRDYFDPEAKIDIPEFKLQIWPGYKTTINQYEDRLLLVTEIAHKVLRMDTVLQMLSEYAATKGNNYKKIFLEDVVGKIVMTDYNKRTYRVDDVAWNVSPKSTFKMRDENITYIEYYYKKYNLRIQDPGQPLLISRSKPREIRAGLPELIYLVPELCRQTGLSDEMRANFKLMRSLDVHTKIGPDKRIEKLNNFNRRFTSTPEVVEELATWSLKLSKELVKIKGRQLPPENIIQANNVKYPAGDTTEGWTRDMRSKHLLAIAQLNSWVVITPERQRRDTESFIDLIIKTGGGVGFRMRSPDLVVIRHDGPIEYANMCEEVIARKNPALILCVLARNYADRYEAIKKKCTVDRAVPTQVVCARNMSSKSAMSIATKVAIQINCKLGGSPWTVDIPLPSLMVVGYDVCHDTRSKEKSFGAFVATLDKQMTQYYSIVNAHTSGEELSSHMGFNIASAVKKFREKNGTYPARIFIYRDGVGDGQIPYVHSHEVAEIKKKLAEIYAGVEIKLAFIIVSKRINTRIFVQRGRSGENPRPGTVIDDVVTLPERYDFYLVSQNVREGTIAPTSYNVIEDTTGLNPDRIQRLTYKLTHLYFNCSSQVRVPSVCQYAHKLAFLAANSLHNQPHYSLNETLYFL |
